# The list does not hold the whole screen: it is rich in T/C values a quarter to a half above the control, in often repeated tests (any T/C) and in doses without a T/C. Other doses and runs of a compound stand elsewhere. T/C: endpoint of the treated group in % of that of the vehicle group. Some entries give survivors of the animals treated and no T/C: the source holds a T/C of zero for them, seemingly a mark for toxic or unscored doses. Some doses without a T/C left all or most animals alive at the check, yet need not have been tolerated: the source hardly ever lists a survival T/C far under the control, and the zero likely stands for such cases as well. Counts of survivors are from the toxicity check (mostly the fifth day) where no day follows; animals may have died later. Schedules are NCI's codes, read here as Q, the interval in days (D) or hours (H), X, the number of doses. Some schedule codes hold Z or #, which are not explained here. Some doses were run more than once; the results are listed from low to high. Where survival is the endpoint, the PubChem record calls one and a half times the control and up active, and a quarter to a half above the control has no call in these data; cut-offs in other NCI protocols can differ.
# Tested on: L1210 leukemia ip in BDF1 mice, survival T/C
# Test: NCI In Vivo Anticancer Drug Screen. Data for tumor model L1210 Leukemia (intraperitoneal) in B6D2F1 (BDF1) mice
# Settings: T/C endpoint: mean survival time, higher T/C = longer survival
# [1] = dose: 200.0 mg/kg/injection, schedule: Q01DX001 (ip), vehicle: carboxymethylcellulose (CMC)
# [2] = dose: 400.0 mg/kg/injection, schedule: Q01DX001 (ip), vehicle: carboxymethylcellulose (CMC)
# [3] = dose: 200.0 mg/kg/injection, schedule: Q04DX003 (ip), vehicle: saline with Tween-80
# [4] = dose: 400.0 mg/kg/injection, schedule: Q04DX003 (ip), vehicle: saline with Tween-80
# [5] = dose: 400.0 mg/kg/injection, schedule: Q01DX001 (ip), vehicle: saline
# [6] = dose: 120.0 mg/kg/injection, schedule: Q01DX Z (ip), vehicle: saline
# [7] = dose: 400.0 mg/kg/injection, schedule: Q04DX003 (ip), vehicle: saline
# [8] = dose: 200.0 mg/kg/injection, schedule: Q01DX001 (ip), vehicle: saline
# [9] = dose: 300.0 mg/kg/injection, schedule: Q01DX001 (ip), vehicle: carboxymethylcellulose (CMC)
# [10] = dose: 200.0 mg/kg/injection, schedule: Q04DX003 (ip), vehicle: Klucel (hydroxypropylcellulose) (HPC)
# [11] = dose: 400.0 mg/kg/injection, schedule: Q04DX003 (ip), vehicle: Klucel (hydroxypropylcellulose) (HPC)
smiles,measurement,setting,value
Nc1ncnc2cc(O)[nH]c12,survivor count,[1],1 of 4
same,survivor count,[2],0 of 4
COc1cc(CC#N)cc(OC)c1,survivor count,"dose: 200.0 mg/kg/injection, schedule: Q01DX009 (ip), vehicle: saline with Tween-80",3 of 3
ClCC(Cl)CN1CCCCC1 (stereo not drawn),survivor count,[3],5 of 6
same,survivor count,[4],3 of 6
O=C1NC(=O)C(Nc2ccccc2)(c2ccccc2)N1 (stereo not drawn),survivor count,"dose: 400.0 mg/kg/injection, schedule: Q01DX001 (ip), vehicle: Klucel (hydroxypropylcellulose) (HPC)",1 of 6
Cc1ccc(Cl)cc1NC(=O)OCCOc1ccccc1,survivor count,[3],6 of 6
COc1cc(C=Nc2ccc(-c3nc(C)sc3C)cc2)ccc1N(CCOS(C)(=O)=O)CCOS(C)(=O)=O,survivor count,[5],0 of 6
CN=C(c1ccc(NC(=O)c2cc(C(=O)Nc3ccc(C(=NC)N(C)C)cc3)cc([N+](=O)[O-])c2)cc1)N(C)C,survivor count,"dose: 15.0 mg/kg/injection, schedule: Q01DX Z (ip), vehicle: saline",0 of 6 and 2 of 6
same,survivor count,"dose: 30.0 mg/kg/injection, schedule: Q01DX Z (ip), vehicle: saline",0 of 6
same,survivor count,"dose: 60.0 mg/kg/injection, schedule: Q01DX Z (ip), vehicle: saline",0 of 6
same,survivor count,[6],0 of 6
CC(C)(C)OC1C2C=CC1C1C2C2(Cl)C(Cl)=C(Cl)C1(Cl)C21OCCO1 (stereo not drawn),T/C,"dose: 200.0 mg/kg/injection, schedule: Q04DX002 (ip), vehicle: Klucel (hydroxypropylcellulose) (HPC)",133 % of control
CP1CCC(O)(C(C)(C)C)CC1 (stereo not drawn),survivor count,"dose: 300.0 mg/kg/injection, schedule: Q01DX001 (ip), vehicle: other",3 of 6
O=[N+]([O-])c1cc(S(=O)(=O)c2ccccc2)ccc1S(=O)(=O)c1ccccc1,survivor count,"dose: 100.0 mg/kg/injection, schedule: Q04DX003 (ip), vehicle: saline with Tween-80",6 of 6
same,survivor count,"dose: 200.0 mg/kg/injection, schedule: Q01DX005 (ip), vehicle: saline with Tween-80",4 of 4
same,survivor count,[3],5 of 6
same,survivor count,[4],4 of 6
CC[N+]1=NC2CCCC(C2)C1 (stereo not drawn),survivor count,[7],0 of 6
N#CSCC(=O)OC1CCCCC1,survivor count,"dose: 80.0 mg/kg/injection, schedule: Q01DX001 (ip), vehicle: saline",0 of 6
same,survivor count,"dose: 100.0 mg/kg/injection, schedule: Q01DX001 (ip), vehicle: saline",0 of 4
same,survivor count,[8],0 of 4
same,survivor count,[5],0 of 4
O=[N+]([O-])c1ccc(N/N=C/C(Br)(Br)Br)c([N+](=O)[O-])c1,survivor count,[1],0 of 4
same,survivor count,[2],1 of 4
O=C1C(N2CCOCC2)=C(N2CC2)C(=O)C(N2CCOCC2)=C1N1CC1,T/C,"dose: 1.5 mg/kg/injection, schedule: Q01DX009 (ip), vehicle: saline",132 % of control
same,T/C,"dose: 3.0 mg/kg/injection, schedule: Q01DX009 (ip), vehicle: saline",125 and 135 % of control
same,T/C,"dose: 3.0 mg/kg/injection, schedule: Q04DX003 (ip), vehicle: saline",136 % of control
same,T/C,"dose: 6.0 mg/kg/injection, schedule: Q04DX003 (ip), vehicle: saline",144 and 149 % of control
same,survivor count,"dose: 6.25 mg/kg/injection, schedule: Q01DX001 (ip), vehicle: saline",5 of 6
same,survivor count,"dose: 12.0 mg/kg/injection, schedule: Q04DX003 (ip), vehicle: saline",5 of 6
same,survivor count,"dose: 12.5 mg/kg/injection, schedule: Q01DX001 (ip), vehicle: saline",5 of 6
same,survivor count,"dose: 25.0 mg/kg/injection, schedule: Q01DX001 (ip), vehicle: saline",6 of 6
CCCCCCCCCCCC(C1CCC(C)CC1)C1CCC(C)CC1 (stereo not drawn),survivor count,"dose: 200.0 mg/kg/injection, schedule: Q01DX001 (ip), vehicle: saline with Tween-80",6 of 6
CC(C)(C)c1cc(CN2CCCC(O)C2)c(O)c(-c2ccccc2)c1 (stereo not drawn),survivor count,[7],2 of 6
O=C(O)c1cccc2c1C(=O)c1cc([N+](=O)[O-])ccc1-2,survivor count,[9],0 of 6
CSc1nc(Cl)cc(N2CC2C)n1 (stereo not drawn),survivor count,"dose: 50.0 mg/kg/injection, schedule: Q01DX Z (ip), vehicle: methylcellulose (MC)",1 of 6
same,survivor count,"dose: 100.0 mg/kg/injection, schedule: Q01DX Z (ip), vehicle: methylcellulose (MC)",3 of 6
same,survivor count,"dose: 200.0 mg/kg/injection, schedule: Q01DX Z (ip), vehicle: methylcellulose (MC)",2 of 6
NC(N)=N/N=C/C(Cl)(Cl)Cl,T/C,[6],128 % of control
CN(C)N=Nc1cn(C2OC(CO)C(O)C2O)c(=O)[nH]c1=O (stereo not drawn),T/C,"dose: 400.0 mg/kg/injection, schedule: Q01DX009 (ip), vehicle: saline",130 % of control
CC(=O)N(C)C1=C(Sc2ccc(Cl)cc2)C(=O)c2ccccc2C1=O,survivor count,[9],2 of 6
N#CSc1ccc(S(N)(=O)=O)cc1,survivor count,"dose: 50.0 mg/kg/injection, schedule: Q04DX003 (ip), vehicle: Klucel (hydroxypropylcellulose) (HPC)",3 of 6
same,survivor count,"dose: 100.0 mg/kg/injection, schedule: Q04DX003 (ip), vehicle: Klucel (hydroxypropylcellulose) (HPC)",0 of 6
same,survivor count,[10],1 of 6
same,survivor count,[11],0 of 6
NNC(=S)NC1CCCCC1,survivor count,[10],5 of 6
same,survivor count,[11],0 of 6
CC(C)c1ccc(/C=C(\C(=O)O)c2cccc3ccccc23)cc1,survivor count,"dose: 200.0 mg/kg/injection, schedule: Q01DX009 (ip), vehicle: Klucel (hydroxypropylcellulose) (HPC)",5 of 6
same,survivor count,"dose: 400.0 mg/kg/injection, schedule: Q01DX009 (ip), vehicle: Klucel (hydroxypropylcellulose) (HPC)",2 of 6
NNC(=O)Cc1ccccc1,survivor count,[7],0 of 6
Cc1cc(-c2ccc(N3C(=O)C=CC3=O)c(C)c2)ccc1N1C(=O)C=CC1=O,survivor count,[11],0 of 6
NNc1ccccc1,survivor count,[5],1 of 4
CNC(=S)C(=S)NC,survivor count,"dose: 50.0 mg/kg/injection, schedule: Q04DX003 (ip), vehicle: saline with Tween-80",5 of 6
O=C(Nc1ccc([N+](=O)[O-])cc1)Nc1ccc([N+](=O)[O-])c(C(F)(F)F)c1,survivor count,"dose: 100.0 mg/kg/injection, schedule: Q04DX003 (ip), vehicle: acetone",3 of 6
same,survivor count,"dose: 170.0 mg/kg/injection, schedule: Q01DX009 (ip), vehicle: saline with Tween-80",2 of 6
same,survivor count,[8],2 of 6
same,survivor count,[5],2 of 6

# Source: PubChem BioAssay AID248 (DTP/NCI, 2004)
